The test system of the data set is PC-3 tumor xenografts. Put plainly: Biodistribution. The settings on record: PC-3 tumor bearing SCID mice, 4 hr p.i., i.v., n = 5.

`CSCC[C@H](NC(=O)[C@H](CC(C)C)NC(=O)[C@H](Cc1cnc[nH]1)NC(=O)CNC(=O)[C@@H](NC(=O)[C@H](C)NC(=O)[C@H](Cc1c[nH]c2ccccc12)NC(=O)[C@H](CCC(N)=O)NC(=O)CCCCCCCNC(=O)CN1CCN(CC(=O)O)CCN(CC(=O)O)CCN(CC(=O)O)CC1)C(C)C)C(N)=O` [In-DOTA-8-AOC-BBN(7-14)NH2]: the Blood worked out at 0.03 ± 0.01 %ID/g and the Heart was 0.03 ± 0.02 %ID/g.
